In experiment [1] the target is RARα/RXRα heterodimer (wild type RARα-V5 with RXRα) in the RAR/RXR/DNA ternary complex (human) (UniProt P19793). In words: DNA dependent coregulator recruitment assay (co-immunoprecipitation, western blot), ligands at 1 µM. Background: In western blotting, separated proteins are transferred to a membrane and probed.
For experiment [2] the target is unchanged. In words: co-immunoprecipitation of ternary complex, western blot; ligands at 1 µM.
Experiment [3] concerns the target RARα/RXRα?C heterodimer (RARα-V5 with the dominant negative truncated RXRα) in the ternary complex (human) (UniProt P19793). In words: co-immunoprecipitation (anti-V5) of ternary complex, western blot; with 1 µM TTNPB.
Experiment [4] has as its target RARα/RXRα heterodimer (wild type RARα-V5 with RXRα) in the RAR/RXR/DNA ternary complex (human) (UniProt P19793). In words: co-immunoprecipitation of ternary complex at escalating doses of AGN194794 or AGN196382, western blot.
In experiment [5] the target is RARα/RXRα?C heterodimer (RARα-V5 with the dominant negative truncated RXRα) in the ternary complex (human) (UniProt P19793). As to the kind of experiment: co-immunoprecipitation (anti-V5) of ternary complex from transfected CV-1 extract, anti-N-CoR western blot.
The target of experiment [6] is RARα/RXRα heterodimer (wild type RARα-V5 with RXRα) in the RAR/RXR/DNA ternary complex (human) (UniProt P19793). As to the kind of experiment: co-immunoprecipitation (anti-V5) of ternary complex, western blot; N-CoR bound without ligand, released with 1 µM TTNPB.
Experiment [7] addresses T1, RARα-V5 (human retinoic acid receptor α with V5 epitope tag) (human) (UniProt P10276).
T1 sequence: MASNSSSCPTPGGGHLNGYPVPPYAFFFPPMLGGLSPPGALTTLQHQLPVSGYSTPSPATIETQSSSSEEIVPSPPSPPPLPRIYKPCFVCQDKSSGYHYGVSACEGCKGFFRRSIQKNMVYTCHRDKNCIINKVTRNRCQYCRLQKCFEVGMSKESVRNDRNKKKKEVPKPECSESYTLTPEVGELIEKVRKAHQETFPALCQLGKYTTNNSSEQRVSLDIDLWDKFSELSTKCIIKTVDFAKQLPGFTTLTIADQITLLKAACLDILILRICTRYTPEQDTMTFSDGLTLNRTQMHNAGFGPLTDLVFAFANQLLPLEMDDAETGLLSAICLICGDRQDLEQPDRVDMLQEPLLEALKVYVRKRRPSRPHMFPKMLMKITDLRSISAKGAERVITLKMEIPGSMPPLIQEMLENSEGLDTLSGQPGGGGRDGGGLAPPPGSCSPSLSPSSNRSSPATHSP
In words: co-immunoprecipitation with anti-V5, anti-RXRα western blot.

The chains behind the UniProt entries cited, without tags or fusion partners. Where a name states a change or a piece, a line headed by the entry shows the natural chain unless it says otherwise. Residues count along the entry.
UniProt P19793: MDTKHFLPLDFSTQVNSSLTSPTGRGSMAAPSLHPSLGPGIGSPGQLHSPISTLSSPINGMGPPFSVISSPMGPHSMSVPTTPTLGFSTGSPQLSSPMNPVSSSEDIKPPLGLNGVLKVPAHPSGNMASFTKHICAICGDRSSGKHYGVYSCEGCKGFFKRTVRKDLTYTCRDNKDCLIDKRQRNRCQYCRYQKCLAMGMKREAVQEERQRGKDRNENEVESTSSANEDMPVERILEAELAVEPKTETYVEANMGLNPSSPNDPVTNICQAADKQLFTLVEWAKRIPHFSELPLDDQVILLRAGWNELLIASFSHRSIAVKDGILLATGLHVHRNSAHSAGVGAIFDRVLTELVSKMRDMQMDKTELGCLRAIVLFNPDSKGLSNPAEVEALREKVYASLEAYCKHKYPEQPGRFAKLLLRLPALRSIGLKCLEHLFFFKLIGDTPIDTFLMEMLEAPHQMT
UniProt Q9Y6Q9, residues 2-1424: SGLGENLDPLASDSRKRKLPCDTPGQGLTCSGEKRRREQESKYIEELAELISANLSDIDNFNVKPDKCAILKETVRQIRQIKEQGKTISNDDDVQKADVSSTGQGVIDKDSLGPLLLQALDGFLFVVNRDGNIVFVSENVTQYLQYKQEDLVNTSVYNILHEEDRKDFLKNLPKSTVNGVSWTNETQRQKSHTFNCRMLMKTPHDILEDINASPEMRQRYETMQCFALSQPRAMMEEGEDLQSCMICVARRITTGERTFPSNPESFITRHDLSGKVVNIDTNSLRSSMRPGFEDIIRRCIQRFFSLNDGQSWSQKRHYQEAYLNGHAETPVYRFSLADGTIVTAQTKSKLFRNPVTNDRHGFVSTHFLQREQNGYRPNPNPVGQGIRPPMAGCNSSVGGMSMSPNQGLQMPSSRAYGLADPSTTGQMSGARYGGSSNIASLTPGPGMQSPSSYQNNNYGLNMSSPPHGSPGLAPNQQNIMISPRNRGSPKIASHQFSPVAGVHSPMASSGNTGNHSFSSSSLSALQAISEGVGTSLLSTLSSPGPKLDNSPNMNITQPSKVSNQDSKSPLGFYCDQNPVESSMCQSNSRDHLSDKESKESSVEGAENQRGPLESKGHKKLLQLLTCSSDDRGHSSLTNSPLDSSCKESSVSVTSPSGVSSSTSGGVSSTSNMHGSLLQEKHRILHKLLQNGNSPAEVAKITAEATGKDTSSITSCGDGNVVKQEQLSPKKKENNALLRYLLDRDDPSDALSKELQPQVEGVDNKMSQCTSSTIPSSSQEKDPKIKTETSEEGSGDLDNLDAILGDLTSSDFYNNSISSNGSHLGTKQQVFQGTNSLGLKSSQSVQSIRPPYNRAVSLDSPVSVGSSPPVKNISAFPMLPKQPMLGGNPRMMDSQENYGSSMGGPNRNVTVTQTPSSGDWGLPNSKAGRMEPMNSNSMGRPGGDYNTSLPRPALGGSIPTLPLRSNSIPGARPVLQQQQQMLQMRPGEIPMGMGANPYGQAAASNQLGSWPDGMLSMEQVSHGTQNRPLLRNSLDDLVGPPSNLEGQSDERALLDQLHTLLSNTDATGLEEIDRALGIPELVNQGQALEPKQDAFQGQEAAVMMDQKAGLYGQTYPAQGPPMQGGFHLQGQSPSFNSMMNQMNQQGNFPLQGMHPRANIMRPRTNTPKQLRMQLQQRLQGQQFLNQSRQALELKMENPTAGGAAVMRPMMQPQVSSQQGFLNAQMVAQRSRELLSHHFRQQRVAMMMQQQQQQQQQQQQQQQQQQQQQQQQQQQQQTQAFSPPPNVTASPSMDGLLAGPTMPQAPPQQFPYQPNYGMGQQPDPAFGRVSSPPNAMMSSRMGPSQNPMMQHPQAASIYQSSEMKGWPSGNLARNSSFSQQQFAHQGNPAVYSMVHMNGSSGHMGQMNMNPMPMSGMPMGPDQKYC
UniProt O75376: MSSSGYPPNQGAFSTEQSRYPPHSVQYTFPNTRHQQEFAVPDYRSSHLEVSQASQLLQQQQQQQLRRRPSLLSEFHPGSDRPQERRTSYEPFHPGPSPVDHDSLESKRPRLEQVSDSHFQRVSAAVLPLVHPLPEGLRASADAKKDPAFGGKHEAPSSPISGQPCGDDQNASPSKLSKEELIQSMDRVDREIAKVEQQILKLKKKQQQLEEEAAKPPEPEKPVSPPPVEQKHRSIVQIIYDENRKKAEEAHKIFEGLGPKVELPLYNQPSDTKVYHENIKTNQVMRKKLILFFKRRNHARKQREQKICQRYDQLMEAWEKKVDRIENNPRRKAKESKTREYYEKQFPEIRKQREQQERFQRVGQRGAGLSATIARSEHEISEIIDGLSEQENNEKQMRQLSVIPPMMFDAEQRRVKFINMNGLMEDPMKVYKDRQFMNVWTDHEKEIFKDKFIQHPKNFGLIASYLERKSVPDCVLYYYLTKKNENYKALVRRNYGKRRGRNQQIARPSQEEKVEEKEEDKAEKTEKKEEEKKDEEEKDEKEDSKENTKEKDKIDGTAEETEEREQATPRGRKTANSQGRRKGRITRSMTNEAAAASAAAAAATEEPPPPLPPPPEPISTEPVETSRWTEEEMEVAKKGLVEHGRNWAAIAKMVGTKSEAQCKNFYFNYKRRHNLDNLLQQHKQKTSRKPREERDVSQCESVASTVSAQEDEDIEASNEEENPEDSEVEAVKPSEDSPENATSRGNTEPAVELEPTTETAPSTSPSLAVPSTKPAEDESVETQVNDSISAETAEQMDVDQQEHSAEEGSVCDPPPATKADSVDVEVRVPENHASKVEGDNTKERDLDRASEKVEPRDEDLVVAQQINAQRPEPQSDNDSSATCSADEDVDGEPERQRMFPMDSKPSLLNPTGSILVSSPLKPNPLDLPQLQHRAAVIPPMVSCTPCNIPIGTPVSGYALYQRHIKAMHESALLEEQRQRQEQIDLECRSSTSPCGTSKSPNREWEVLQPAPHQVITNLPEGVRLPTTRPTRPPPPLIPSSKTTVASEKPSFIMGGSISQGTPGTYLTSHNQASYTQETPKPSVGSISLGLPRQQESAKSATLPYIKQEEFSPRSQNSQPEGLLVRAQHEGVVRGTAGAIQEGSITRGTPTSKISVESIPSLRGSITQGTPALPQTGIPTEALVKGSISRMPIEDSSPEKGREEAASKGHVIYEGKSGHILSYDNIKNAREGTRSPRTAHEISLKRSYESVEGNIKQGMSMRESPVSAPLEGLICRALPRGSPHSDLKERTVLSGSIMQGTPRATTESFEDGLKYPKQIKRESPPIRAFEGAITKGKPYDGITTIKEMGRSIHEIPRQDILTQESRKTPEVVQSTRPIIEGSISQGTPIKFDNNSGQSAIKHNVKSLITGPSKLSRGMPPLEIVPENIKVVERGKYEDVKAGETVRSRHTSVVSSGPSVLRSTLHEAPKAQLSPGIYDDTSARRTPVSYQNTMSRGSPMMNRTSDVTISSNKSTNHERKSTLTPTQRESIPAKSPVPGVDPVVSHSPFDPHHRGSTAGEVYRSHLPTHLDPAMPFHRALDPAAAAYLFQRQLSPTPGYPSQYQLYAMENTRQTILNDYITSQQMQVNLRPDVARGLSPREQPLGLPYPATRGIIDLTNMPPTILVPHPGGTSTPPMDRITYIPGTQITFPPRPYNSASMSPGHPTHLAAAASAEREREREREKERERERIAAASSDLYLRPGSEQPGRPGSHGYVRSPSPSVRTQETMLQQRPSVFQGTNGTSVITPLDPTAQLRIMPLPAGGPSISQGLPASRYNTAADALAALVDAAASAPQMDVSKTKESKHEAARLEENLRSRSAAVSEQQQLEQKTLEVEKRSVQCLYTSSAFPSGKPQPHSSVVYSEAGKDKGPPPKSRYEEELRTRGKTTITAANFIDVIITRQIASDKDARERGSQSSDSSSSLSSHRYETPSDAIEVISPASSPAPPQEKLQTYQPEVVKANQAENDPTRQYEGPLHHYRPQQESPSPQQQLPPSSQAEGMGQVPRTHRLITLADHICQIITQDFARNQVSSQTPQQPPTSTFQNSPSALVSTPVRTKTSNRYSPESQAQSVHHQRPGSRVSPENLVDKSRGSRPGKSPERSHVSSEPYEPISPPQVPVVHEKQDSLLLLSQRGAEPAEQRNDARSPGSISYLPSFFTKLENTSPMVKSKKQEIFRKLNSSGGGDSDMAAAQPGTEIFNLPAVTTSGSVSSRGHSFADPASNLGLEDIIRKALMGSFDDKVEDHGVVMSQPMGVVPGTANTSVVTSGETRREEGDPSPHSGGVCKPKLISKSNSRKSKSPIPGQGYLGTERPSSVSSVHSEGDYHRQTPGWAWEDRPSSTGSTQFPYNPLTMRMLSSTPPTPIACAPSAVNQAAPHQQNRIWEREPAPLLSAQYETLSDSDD

These are yes or no findings as the source states them, for the method shown. In cells and extracts the contact can be indirect. Some results given as binding are weak or reduced against the parent protein; the word gives no strength. For some assays here: Where a sequence is shown, tags or fusion partners need not be part of it.

As for “ACTR/p/CIP/AIB1/NCoA-3 (from UniProt Q9Y6Q9 2-1424)”, the binding entry in experiment [1] is “binds”.

For “N-CoR (nuclear receptor corepressor) (from UniProt O75376 1-2440)”, the binding entry in experiment [2], in experiment [3], in experiment [4], in experiment [5] and in experiment [6] was “binds” in each case.

“RXRα (retinoid X receptor α) (from UniProt P19793 1-462)”: the binding entry in experiment [7] is recorded as “binds”.

With “RXRα?C (dominant negative RXR derivative truncated at amino acid 448) (from UniProt P19793 1-448) (receptor)”, in experiment [7], the binding entry is recorded as “binds”.

For the origin of these results see patent US20030003517A1, “Methods of detecting dissociated nuclear hormone receptor ligands” (priority 2001, published 2003).
